{
  "source": "patent US11162083B2",
  "about": "“Peptide based inhibitors of Raf kinase protein dimerization and kinase activity” (UNIVERSITY OF SOUTH CAROLINA, priority 2018, dated 2021)",
  "test_system": "NRASQ61K-mutant SBC12 melanoma cells",
  "experiment": "Western blotting of MEK/ERK signaling in melanoma cells",
  "settings": "1 μM, four hours, in FAM-TAT-Pep6AlaNC3 treated control cells",
  "note": "At least one compound was matched to its structure with a doubt left.",
  "data": [
    {"smiles": "CCCS(=O)(=O)Nc1ccc(F)c(C(=O)c2c[nH]c3ncc(-c4ccc(Cl)cc4)cc23)c1F", "note": "[vemurafenib, reference compound]", "values": [
      {"measurement": "expression and phosphorylation of MEK, ERK and FRA1", "result": "upregulates"}
    ]}
  ]
}
